# Experimental data published in the supplement of paper PMC6411743.
# Protein sequences, listed by entry. Tags and fused reporters are not part of them. Lines headed by an entry give the natural chain unless they say otherwise; changes in a name come on top.
# UniProt Q08623: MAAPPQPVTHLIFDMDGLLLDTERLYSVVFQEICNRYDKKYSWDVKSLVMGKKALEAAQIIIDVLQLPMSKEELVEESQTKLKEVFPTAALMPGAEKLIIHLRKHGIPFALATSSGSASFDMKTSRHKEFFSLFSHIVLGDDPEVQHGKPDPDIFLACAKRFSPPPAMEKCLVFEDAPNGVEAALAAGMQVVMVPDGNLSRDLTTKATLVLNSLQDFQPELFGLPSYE
# UniProt Q13888: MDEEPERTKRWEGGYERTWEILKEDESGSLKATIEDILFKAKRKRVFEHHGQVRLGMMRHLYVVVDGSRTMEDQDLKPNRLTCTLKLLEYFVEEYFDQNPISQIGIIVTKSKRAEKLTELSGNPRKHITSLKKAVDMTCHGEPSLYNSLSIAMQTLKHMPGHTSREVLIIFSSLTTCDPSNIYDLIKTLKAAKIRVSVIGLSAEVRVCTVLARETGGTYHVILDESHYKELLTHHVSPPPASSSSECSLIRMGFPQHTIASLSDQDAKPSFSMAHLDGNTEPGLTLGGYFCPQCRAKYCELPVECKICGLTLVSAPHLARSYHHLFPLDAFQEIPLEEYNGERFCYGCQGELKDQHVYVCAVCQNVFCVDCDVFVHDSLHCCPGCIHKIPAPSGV
# UniProt Q14139: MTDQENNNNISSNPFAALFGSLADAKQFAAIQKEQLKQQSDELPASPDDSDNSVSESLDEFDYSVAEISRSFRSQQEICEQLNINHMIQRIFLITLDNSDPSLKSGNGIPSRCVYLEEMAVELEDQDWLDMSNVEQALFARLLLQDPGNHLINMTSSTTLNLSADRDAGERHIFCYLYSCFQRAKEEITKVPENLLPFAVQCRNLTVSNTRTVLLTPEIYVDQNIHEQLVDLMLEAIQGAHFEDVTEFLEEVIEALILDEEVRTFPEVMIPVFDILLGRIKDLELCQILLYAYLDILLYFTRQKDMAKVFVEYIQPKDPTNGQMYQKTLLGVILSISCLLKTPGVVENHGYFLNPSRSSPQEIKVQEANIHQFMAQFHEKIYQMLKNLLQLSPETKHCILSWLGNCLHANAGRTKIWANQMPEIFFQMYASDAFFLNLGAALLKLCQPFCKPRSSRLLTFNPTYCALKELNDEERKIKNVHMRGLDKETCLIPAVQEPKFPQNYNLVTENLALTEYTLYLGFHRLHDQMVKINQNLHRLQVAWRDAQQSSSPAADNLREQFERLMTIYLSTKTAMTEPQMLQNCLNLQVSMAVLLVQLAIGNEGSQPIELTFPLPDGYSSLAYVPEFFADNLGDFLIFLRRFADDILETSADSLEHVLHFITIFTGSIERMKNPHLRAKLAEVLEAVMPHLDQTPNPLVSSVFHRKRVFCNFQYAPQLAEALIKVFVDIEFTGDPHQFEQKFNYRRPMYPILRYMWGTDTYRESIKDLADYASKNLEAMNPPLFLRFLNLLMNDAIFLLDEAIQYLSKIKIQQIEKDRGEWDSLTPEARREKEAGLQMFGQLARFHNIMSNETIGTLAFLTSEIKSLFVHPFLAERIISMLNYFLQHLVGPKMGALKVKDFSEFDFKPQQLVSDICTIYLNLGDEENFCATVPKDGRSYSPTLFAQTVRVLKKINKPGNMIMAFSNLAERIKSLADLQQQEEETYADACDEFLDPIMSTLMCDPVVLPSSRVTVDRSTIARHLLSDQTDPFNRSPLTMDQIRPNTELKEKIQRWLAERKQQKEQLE
# UniProt Q13033: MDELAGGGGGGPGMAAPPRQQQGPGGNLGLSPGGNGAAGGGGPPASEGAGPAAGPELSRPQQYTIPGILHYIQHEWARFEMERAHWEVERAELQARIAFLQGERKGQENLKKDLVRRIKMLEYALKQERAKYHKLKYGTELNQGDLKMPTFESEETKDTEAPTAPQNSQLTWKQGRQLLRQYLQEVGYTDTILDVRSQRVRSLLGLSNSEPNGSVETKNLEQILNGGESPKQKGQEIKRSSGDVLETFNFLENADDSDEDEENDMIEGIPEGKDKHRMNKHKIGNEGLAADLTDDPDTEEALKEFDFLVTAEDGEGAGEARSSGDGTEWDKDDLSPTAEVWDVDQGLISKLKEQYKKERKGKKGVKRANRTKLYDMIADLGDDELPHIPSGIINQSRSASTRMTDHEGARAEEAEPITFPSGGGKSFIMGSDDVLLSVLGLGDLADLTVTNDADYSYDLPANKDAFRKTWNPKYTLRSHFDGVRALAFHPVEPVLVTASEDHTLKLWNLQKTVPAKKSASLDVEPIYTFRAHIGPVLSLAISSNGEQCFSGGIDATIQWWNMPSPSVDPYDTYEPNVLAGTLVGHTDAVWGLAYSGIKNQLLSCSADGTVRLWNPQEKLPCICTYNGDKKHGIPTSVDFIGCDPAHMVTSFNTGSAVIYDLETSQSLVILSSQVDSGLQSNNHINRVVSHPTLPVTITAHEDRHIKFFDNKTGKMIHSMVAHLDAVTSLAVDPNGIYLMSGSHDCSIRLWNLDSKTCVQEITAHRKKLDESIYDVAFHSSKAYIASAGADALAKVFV
# UniProt Q12824, whole entry: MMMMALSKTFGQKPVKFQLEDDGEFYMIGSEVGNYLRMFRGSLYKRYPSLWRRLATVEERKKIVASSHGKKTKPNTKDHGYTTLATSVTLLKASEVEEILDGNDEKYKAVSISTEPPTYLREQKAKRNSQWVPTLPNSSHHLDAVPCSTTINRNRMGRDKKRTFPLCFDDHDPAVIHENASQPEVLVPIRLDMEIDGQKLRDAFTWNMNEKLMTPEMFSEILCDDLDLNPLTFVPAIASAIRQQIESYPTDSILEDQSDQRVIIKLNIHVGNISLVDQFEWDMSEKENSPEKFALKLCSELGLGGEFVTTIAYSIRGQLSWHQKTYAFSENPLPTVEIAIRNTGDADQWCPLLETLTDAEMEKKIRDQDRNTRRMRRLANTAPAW
# UniProt Q00765: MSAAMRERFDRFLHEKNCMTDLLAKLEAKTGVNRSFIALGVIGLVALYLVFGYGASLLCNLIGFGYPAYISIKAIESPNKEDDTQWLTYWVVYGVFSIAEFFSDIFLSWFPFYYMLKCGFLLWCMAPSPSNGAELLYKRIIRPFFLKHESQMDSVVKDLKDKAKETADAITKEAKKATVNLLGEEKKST
# UniProt Q14145, whole entry: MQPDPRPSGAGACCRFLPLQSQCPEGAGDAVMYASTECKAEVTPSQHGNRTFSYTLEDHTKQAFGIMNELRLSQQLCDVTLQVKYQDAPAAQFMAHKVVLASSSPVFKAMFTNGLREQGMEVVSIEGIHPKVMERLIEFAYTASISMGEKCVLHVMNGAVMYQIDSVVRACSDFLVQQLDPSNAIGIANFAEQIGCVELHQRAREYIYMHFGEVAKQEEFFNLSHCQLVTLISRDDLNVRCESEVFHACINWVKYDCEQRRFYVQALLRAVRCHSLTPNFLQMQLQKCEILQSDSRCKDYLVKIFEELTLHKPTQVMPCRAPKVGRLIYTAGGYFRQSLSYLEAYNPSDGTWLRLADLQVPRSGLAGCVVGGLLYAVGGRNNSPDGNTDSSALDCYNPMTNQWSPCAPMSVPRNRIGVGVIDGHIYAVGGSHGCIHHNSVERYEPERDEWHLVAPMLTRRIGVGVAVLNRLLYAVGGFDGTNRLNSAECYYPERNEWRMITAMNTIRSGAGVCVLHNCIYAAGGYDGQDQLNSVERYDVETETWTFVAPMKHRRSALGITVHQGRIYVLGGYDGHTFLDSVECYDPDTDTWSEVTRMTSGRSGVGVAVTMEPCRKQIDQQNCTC
# UniProt Q13526, whole entry: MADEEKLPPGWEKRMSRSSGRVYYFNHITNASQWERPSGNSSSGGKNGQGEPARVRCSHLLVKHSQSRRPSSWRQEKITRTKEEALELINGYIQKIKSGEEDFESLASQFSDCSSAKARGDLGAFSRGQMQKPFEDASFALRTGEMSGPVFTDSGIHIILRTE
# UniProt Q04446: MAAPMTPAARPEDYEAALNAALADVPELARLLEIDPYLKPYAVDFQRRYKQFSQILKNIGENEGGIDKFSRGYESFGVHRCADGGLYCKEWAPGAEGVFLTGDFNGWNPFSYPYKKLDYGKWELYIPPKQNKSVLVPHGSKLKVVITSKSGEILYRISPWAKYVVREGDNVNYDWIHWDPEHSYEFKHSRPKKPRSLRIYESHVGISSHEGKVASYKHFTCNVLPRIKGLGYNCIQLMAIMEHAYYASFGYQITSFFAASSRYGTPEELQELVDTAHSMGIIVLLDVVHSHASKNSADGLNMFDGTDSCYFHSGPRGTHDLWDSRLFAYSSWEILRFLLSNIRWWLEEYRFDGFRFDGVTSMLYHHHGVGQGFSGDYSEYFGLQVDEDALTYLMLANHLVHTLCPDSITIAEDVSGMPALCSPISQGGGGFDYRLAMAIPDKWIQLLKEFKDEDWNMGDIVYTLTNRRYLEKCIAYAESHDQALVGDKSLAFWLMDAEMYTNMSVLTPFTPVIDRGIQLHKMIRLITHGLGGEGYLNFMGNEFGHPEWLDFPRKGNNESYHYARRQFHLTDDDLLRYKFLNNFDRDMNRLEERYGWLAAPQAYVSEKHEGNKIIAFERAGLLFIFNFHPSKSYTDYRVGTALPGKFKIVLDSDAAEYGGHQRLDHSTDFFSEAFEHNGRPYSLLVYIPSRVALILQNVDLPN
# UniProt Q13185: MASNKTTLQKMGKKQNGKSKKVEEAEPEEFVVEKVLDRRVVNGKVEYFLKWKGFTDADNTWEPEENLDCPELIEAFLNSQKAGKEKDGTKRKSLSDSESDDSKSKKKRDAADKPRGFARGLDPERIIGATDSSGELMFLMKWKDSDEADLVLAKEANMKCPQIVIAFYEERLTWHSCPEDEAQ
# UniProt Q13576: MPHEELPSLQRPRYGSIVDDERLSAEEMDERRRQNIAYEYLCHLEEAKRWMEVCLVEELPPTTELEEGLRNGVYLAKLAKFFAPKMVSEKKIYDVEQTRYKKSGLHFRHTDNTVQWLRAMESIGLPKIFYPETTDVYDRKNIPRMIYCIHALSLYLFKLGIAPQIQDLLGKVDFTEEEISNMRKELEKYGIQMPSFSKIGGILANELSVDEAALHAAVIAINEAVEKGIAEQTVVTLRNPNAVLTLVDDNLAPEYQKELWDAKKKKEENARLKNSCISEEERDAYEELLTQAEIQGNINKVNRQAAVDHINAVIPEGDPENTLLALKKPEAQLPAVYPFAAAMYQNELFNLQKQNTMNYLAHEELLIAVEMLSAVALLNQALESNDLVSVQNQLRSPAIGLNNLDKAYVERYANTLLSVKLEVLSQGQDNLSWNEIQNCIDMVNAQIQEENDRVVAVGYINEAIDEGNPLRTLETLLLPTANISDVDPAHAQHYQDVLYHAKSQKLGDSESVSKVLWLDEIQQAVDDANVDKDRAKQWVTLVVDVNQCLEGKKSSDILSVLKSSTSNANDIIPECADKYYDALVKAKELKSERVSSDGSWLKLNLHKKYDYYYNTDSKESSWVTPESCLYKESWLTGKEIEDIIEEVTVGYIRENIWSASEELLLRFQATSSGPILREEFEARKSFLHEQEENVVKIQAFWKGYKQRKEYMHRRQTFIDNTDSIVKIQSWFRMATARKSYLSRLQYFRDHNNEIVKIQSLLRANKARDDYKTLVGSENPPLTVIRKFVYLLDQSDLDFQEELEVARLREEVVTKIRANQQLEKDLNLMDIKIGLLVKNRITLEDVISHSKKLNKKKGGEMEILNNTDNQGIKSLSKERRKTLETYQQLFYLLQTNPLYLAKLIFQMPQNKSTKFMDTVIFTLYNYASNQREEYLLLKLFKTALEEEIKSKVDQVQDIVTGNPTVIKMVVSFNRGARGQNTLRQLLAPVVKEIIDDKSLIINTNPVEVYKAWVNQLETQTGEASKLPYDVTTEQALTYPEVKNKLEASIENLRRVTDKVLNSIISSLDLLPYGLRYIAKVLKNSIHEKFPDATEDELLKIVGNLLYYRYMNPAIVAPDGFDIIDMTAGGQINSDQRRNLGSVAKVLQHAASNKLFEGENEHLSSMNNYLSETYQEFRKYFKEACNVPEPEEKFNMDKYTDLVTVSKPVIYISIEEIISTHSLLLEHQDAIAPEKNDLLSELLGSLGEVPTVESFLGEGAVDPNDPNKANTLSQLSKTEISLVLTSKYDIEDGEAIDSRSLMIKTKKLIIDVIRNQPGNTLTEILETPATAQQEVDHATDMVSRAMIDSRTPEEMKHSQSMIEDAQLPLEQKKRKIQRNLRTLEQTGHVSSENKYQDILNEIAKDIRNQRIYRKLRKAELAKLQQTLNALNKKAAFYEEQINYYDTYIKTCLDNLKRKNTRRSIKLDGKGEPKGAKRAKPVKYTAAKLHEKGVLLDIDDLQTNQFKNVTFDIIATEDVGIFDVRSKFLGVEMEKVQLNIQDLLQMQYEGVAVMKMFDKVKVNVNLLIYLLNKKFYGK
# UniProt Q13015: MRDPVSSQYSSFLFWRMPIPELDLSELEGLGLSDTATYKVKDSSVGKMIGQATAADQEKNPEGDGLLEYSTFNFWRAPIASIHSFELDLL
# ± gives the standard deviation of the averaged measurements. This is a selection; strong and weak results do not stand in their true shares. Small differences around the control level are noise.
# Compound: Nc1ncnc2c1ncn2[C@@H]1O[C@H](COP(=O)(O)OP(=O)(O)OP(=O)(O)O)[C@@H](O)[C@H]1O [adenosine triphosphate]
# Experiment: NP40-soluble protein abundance relative to vehicle (solubility fold change) (ratio); higher = more soluble protein in presence of ATP
# Summary of the method: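 Across three independent experiments, values are fold changes against the detergent-processed vehicle for each replicate, based on vsn-normalised intensities. The samples were Jurkat crude lysate treated with eight concentrations (0.1 to 10 mM) for 10 min at room temperature and then 3 min at 37 °C. Lysate was solubilised with 0.8% NP40 and benzonase, ultracentrifuged, and the supernatant analysed by TMT-labelled LC-MS/MS.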
target,measurement,setting,value
UniProt Q08623 and related entries,NP40-soluble protein abundance,concentration: 0.1mM,1.01 ± 0.073
same,NP40-soluble protein abundance,concentration: 0.5mM,1.02 ± 0.046
Q13888 and related entries (UniProt Q6P1K8+Q13888),NP40-soluble protein abundance,concentration: 0.1mM,1.07 ± 0.028
same,NP40-soluble protein abundance,concentration: 0.5mM,1.11 ± 0.076
UniProt Q01968 and related entries,NP40-soluble protein abundance,concentration: 0.1mM,1.02 ± 0.084
same,NP40-soluble protein abundance,concentration: 0.5mM,1.01 ± 0.014
UniProt Q14139 and related entries,NP40-soluble protein abundance,concentration: 0.1mM,1.03 ± 0.066
same,NP40-soluble protein abundance,concentration: 0.5mM,1.02 ± 0.044
UniProt Q13033 and related entries,NP40-soluble protein abundance,concentration: 0.1mM,1.02 ± 0.017
same,NP40-soluble protein abundance,concentration: 0.5mM,1 ± 0.055
UniProt Q0VD83 and related entries,NP40-soluble protein abundance,concentration: 0.1mM,1.08 ± 0.12
same,NP40-soluble protein abundance,concentration: 0.5mM,0.982 ± 0.086
KHDRBS1 (UniProt Q07666),NP40-soluble protein abundance,concentration: 0.1mM,0.976 ± 0.025
same,NP40-soluble protein abundance,concentration: 0.5mM,1.02 ± 0.053
UniProt Q12824,NP40-soluble protein abundance,concentration: 0.1mM,1.05 ± 0.032
same,NP40-soluble protein abundance,concentration: 0.5mM,1.11 ± 0.05
PPP1R8 (UniProt Q12972),NP40-soluble protein abundance,concentration: 0.1mM,0.975 ± 0.036
same,NP40-soluble protein abundance,concentration: 0.5mM,0.969 ± 0.063
UniProt Q13952 and related entries,NP40-soluble protein abundance,concentration: 0.1mM,0.969 ± 0.045
same,NP40-soluble protein abundance,concentration: 0.5mM,0.922 ± 0.056
REEP5 (UniProt Q00765),NP40-soluble protein abundance,concentration: 0.1mM,0.889 ± 0.07
same,NP40-soluble protein abundance,concentration: 0.5mM,0.919 ± 0.048
UniProt Q06265 and related entries,NP40-soluble protein abundance,concentration: 0.1mM,1.05 ± 0.041
same,NP40-soluble protein abundance,concentration: 0.5mM,1.03 ± 0.071
HMGCS1 (UniProt Q01581),NP40-soluble protein abundance,concentration: 0.1mM,0.997 ± 0.056
same,NP40-soluble protein abundance,concentration: 0.5mM,1.04 ± 0.052
UniProt Q06136 and related entries,NP40-soluble protein abundance,concentration: 0.1mM,0.96 ± 0.11
same,NP40-soluble protein abundance,concentration: 0.5mM,0.981 ± 0.043
KEAP1 (UniProt Q14145),NP40-soluble protein abundance,concentration: 0.1mM,0.95 ± 0.15
same,NP40-soluble protein abundance,concentration: 0.5mM,0.809 ± 0.077
HDAC1 (UniProt Q13547),NP40-soluble protein abundance,concentration: 0.1mM,0.958 ± 0.054
same,NP40-soluble protein abundance,concentration: 0.5mM,0.989 ± 0.067
ARHGAP1 (UniProt Q07960),NP40-soluble protein abundance,concentration: 0.1mM,1.04 ± 0.074
same,NP40-soluble protein abundance,concentration: 0.5mM,1.01 ± 0.057
NMI (UniProt Q13287),NP40-soluble protein abundance,concentration: 0.1mM,1 ± 0.056
same,NP40-soluble protein abundance,concentration: 0.5mM,1.03 ± 0.054
PIN1 (UniProt Q13526),NP40-soluble protein abundance,concentration: 0.1mM,0.965 ± 0.015
same,NP40-soluble protein abundance,concentration: 0.5mM,0.929 ± 0.016
GBE1 (UniProt Q04446),NP40-soluble protein abundance,concentration: 0.1mM,1.05 ± 0.074
same,NP40-soluble protein abundance,concentration: 0.5mM,1.05 ± 0.052
GNL2 (UniProt Q13823),NP40-soluble protein abundance,concentration: 0.1mM,0.974 ± 0.026
same,NP40-soluble protein abundance,concentration: 0.5mM,1.07 ± 0.052
UniProt Q13574 and related entries,NP40-soluble protein abundance,concentration: 0.1mM,1.04 ± 0.037
same,NP40-soluble protein abundance,concentration: 0.5mM,1.07 ± 0.042
UniProt Q02410 and related entries,NP40-soluble protein abundance,concentration: 0.1mM,0.98 ± 0.11
same,NP40-soluble protein abundance,concentration: 0.5mM,0.904 ± 0.042
YWHAH (UniProt Q04917),NP40-soluble protein abundance,concentration: 0.1mM,0.914 ± 0.066
same,NP40-soluble protein abundance,concentration: 0.5mM,0.848 ± 0.075
UniProt Q07002 and related entries,NP40-soluble protein abundance,concentration: 0.1mM,1.05 ± 0.081
same,NP40-soluble protein abundance,concentration: 0.5mM,1.19 ± 0.074
UniProt Q12912 and related entries,NP40-soluble protein abundance,concentration: 0.1mM,1.041 ± 0.0096
same,NP40-soluble protein abundance,concentration: 0.5mM,1.02 ± 0.097
DNAJC3 (UniProt Q13217),NP40-soluble protein abundance,concentration: 0.1mM,1 ± 0.021
same,NP40-soluble protein abundance,concentration: 0.5mM,1 ± 0.045
UniProt Q14004 and related entries,NP40-soluble protein abundance,concentration: 0.1mM,0.992 ± 0.014
same,NP40-soluble protein abundance,concentration: 0.5mM,1.19 ± 0.025
CBX3 (UniProt Q13185),NP40-soluble protein abundance,concentration: 0.1mM,0.909 ± 0.013
same,NP40-soluble protein abundance,concentration: 0.5mM,0.939 ± 0.052
IQGAP2 (UniProt Q13576),NP40-soluble protein abundance,concentration: 0.1mM,1.04 ± 0.052
same,NP40-soluble protein abundance,concentration: 0.5mM,1.08 ± 0.049
PAK1 (UniProt Q13153),NP40-soluble protein abundance,concentration: 0.1mM,0.981 ± 0.025
same,NP40-soluble protein abundance,concentration: 0.5mM,1.02 ± 0.043
MLLT11 (UniProt Q13015),NP40-soluble protein abundance,concentration: 0.1mM,0.855 ± 0.023
same,NP40-soluble protein abundance,concentration: 0.5mM,1.05 ± 0.057
UniProt Q02040,NP40-soluble protein abundance,concentration: 0.1mM,0.997 ± 0.033
same,NP40-soluble protein abundance,concentration: 0.5mM,1.21 ± 0.18
same,NP40-soluble protein abundance,concentration: 1mM,1.4 ± 0.24
same,NP40-soluble protein abundance,concentration: 2mM,1.56 ± 0.34
same,NP40-soluble protein abundance,concentration: 4mM,1.8 ± 0.45
same,NP40-soluble protein abundance,concentration: 6mM,2.02 ± 0.41
same,NP40-soluble protein abundance,concentration: 8mM,2.19 ± 0.54
same,NP40-soluble protein abundance,concentration: 10mM,2.43 ± 0.62
UniProt Q13370 and related entries,NP40-soluble protein abundance,concentration: 0.1mM,1 ± 0.17
same,NP40-soluble protein abundance,concentration: 0.5mM,1.04 ± 0.051
SNW1 (UniProt Q13573),NP40-soluble protein abundance,concentration: 0.1mM,0.97 ± 0.025
same,NP40-soluble protein abundance,concentration: 0.5mM,0.979 ± 0.058
RNASEL (UniProt Q05823),NP40-soluble protein abundance,concentration: 0.1mM,1.1 ± 0.015
same,NP40-soluble protein abundance,concentration: 0.5mM,1.16 ± 0.022

# Part of the list above, tab-delimited:
target	measurement	setting	value
UniProt Q13033 and related entries	NP40-soluble protein abundance	concentration: 0.1mM	1.02 ± 0.017
same	NP40-soluble protein abundance	concentration: 0.5mM	1 ± 0.055
UniProt Q0VD83 and related entries	NP40-soluble protein abundance	concentration: 0.1mM	1.08 ± 0.12
same	NP40-soluble protein abundance	concentration: 0.5mM	0.982 ± 0.086

# Some of the entries so far, tab-delimited:
target	measurement	setting	value
UniProt Q12824	NP40-soluble protein abundance	concentration: 0.1mM	1.05 ± 0.032
same	NP40-soluble protein abundance	concentration: 0.5mM	1.11 ± 0.05
